Results published in patent US20120202747A1.
Results are given in words; binding and its absence hold for the method and conditions named. For some of these results: Binding calls can cover weak binding; strength is not graded here. Tags and fused reporters may be left off the sequences shown. For some of these results: In cells and extracts the contact can be indirect.

Assays:
[1] = target: ER (enoylreductase) domain of FAS tagged with FLAG at the N terminus; test: co-immunoprecipitation in HEK293T cells, anti-FLAG and anti-HA antibodies
[2] = target: TE (thioesterase) domain of FAS tagged with FLAG at the N terminus; test: as above
[3] = target: DH (dehydrase) domain of FAS tagged with FLAG at the N terminus; test: as above
[4] = target: MAT (malonyl/acetyl transferase) domain of FAS tagged with FLAG at the N terminus; test: as above
[5] = target: FAS (fatty acid synthase) fused with a FLAG-tag; test: co-immunoprecipitation in HEK293T cells, FIG. 33B
[6] = target: FAS (fatty acid synthase) fused with a FLAG-tag; test: co-immunoprecipitation in HEK293T cells, FIG. 33A
[7] = target: FAS (fatty acid synthase) fused with a FLAG-tag; test: co-immunoprecipitation from co-expressing HEK293T cells with an anti-FLAG antibody or an anti-HA antibody
[8] = target: FAS (fatty acid synthase) fused with a FLAG-tag; test: immunoprecipitation, FIG. 14
[9] = target: FAS (fatty acid synthase) fused with a FLAG-tag; test: co-immunoprecipitation from lysate of co-expressing HEK293T cells with an anti-FLAG antibody
[10] = substrate: CC (central core) region of FAS tagged with FLAG at the N terminus; test: co-immunoprecipitation in HEK293T cells, anti-FLAG and anti-HA antibodies

B1: mouse AIM (apoptosis inhibitor of macrophage) fused with an HA-tag (protein, not shown: small tags and cut ends)
chain: ESPTKVQLVGGAHRCEGRVEVEHNGQWGTVCDDGWDRRDVAVVCRELNCGAVIQTPRGASYQPPASEQRVLIQGVDCNGTEDTLAQCELNYYVFDCSHEEDAGAQCENPDSDLLFIPEDVRLVDGPGHCQGRVEVLHQSQWSTVCKAGWNLQVSKVVCRQLGCGRALLTYGSCNKNTQGKGPIWMGKMSCSGQEANLRSCLLSRLENNCTHGEDTWMECEDPFELKLVGGDTPCSGRLEVLHKGSWGSVCDDNWGEKEDQVVCKQLGCGKSLHPSPKTRKIYGPGAGRIWLDDVNCSGKEQSLEFCRHRLWGYHDCTHKEDVEVICTDFDV
binding [1]: binds | binding [2]: binds | binding [3]: binds | binding [4]: no binding | binding [5]: binds | binding [6]: binds | binding [7]: binds | binding [8]: binds | binding [9]: binds | binding [10]: binds
